Laboratory results as given in paper PMC12061330.
No constants are given. Whether binding was seen depends on the method and setting. A result given as binding can be weak or reduced; the word gives no strength. Tags and fused reporters may be left off the sequences shown.

Chains of the proteins cited; added tags and fusions are not shown. Lines headed by an entry give the natural chain unless they say otherwise; changes in a name come on top.
UniProt P01106: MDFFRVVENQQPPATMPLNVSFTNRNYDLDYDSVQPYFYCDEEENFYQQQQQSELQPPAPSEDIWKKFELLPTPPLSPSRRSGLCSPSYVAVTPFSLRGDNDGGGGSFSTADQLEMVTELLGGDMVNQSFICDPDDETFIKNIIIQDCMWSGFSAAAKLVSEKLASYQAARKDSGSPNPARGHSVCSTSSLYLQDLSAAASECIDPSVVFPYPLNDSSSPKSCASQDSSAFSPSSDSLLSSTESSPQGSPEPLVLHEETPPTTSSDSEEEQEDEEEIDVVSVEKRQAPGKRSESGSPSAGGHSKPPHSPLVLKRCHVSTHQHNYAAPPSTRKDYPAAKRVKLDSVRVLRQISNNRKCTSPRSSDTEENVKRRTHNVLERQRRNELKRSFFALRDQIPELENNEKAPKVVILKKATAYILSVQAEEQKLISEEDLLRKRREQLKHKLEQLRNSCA

Columns and labels:
Experiment in all cases: pull-down; Glutathione Sepharose 4B beads incubated with purified GST‐tagged C‐MYC proteins and then His‐S‐tagged PDCD11 proteins; washed 4 times with 1% Triton X‐100 in PBS; blots with anti‐S‐Tag and anti‐GST; both purified
[1] = target: C‐MYC (1–147) (GST‐tagged, recombinant) (UniProt P01106)
[2] = target: C‐MYC (1–80) (GST‐tagged, recombinant) (UniProt P01106)
[3] = target: C‐MYC (81–147) (GST‐tagged, recombinant) (UniProt P01106)

Measured: binding

PDCD11‐FL (His‐S‐tagged, recombinant) (from UniProt Q14690 1-1871)
binds: all assays above

B1: PDCD11 (1033–1431) (His‐S‐tagged, recombinant) (domain or fragment, UniProt Q14690 1033-1431)
chain: LSIGDMVTGTVKSIKPTHVVVTLEDGIIGCIHASHILDDVPEGTSPTTKLKVGKTVTARVIGGRDMKTFKYLPISHPRFVRTIPELSVRPSELEDGHTALNTHSVSPMEKIKQYQAGQTVTCFLKKYNVVKKWLEVEIAPDIRGRIPLLLTSLSFKVLKHPDKKFRVGQALRATVVGPDSSKTLLCLSLTGPHKLEEGEVAMGRVVKVTPNEGLTVSFPFGKIGTVSIFHMSDSYSETPLEDFVPQKVVRCYILSTADNVLTLSLRSSRTNPETKSKVEDPEINSIQDIKEGQLLRGYVGSIQPHGVFFRLGPSVVGLARYSHVSQHSPSKKALYNKHLPEGKLLTARVLRLNHQKNLVELSFLPGDTGKPDVLSASLEGQLTKQEERKTEAEERDQKG
binds: all assays above
